PubChem BioAssay AID504744, Drosophila RNAi Screening Center | 2011

Aim: 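Find genes whose loss alters insulin-driven dAkt phosphorylation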 (primary screen)
System: Drosophila Kc167 cells
Knock-down reagent: long dsRNA against Drosophila genes, 250 ng dsRNA per well of a 384-well plate
Duration: 3 days of knock-down, then overnight serum-free starvation before stimulation
Challenge: bovine insulin at 387 nM for 10 minutes after 12 h without serum
Detection: 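In-cell antibody fluorescence for phospho-dAkt in each well over DNA-dye signal, with log2 residuals expressed as z-scores adjusted for cell count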
Rule for the call: 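Under insulin, a gene counts as a hit if the average z-score of two replicates lies above 2.5 or below -2.5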
In all, the deposit lists about 23,000 reagents; this is an unselected part of those that have a named target and a result. In the full data, 98 (0.43%) were called active. 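Only hit calls are given; the phospho-dAkt signals, z-scores and hit direction were not deposited.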 The numbers tell different reagents against one gene apart. Names joined by + are all predicted targets of the reagent. Reagent sequences are not shown.

CG8237 | outcome: inactive
CG4271 | outcome: inactive
lap (like-AP180) | outcome: inactive
Grip91 (Gamma-tubulin ring protein 91) | outcome: inactive
CG31802 | outcome: inactive
Whamy (WHAMM and JMY related) | outcome: inactive
CG2021 | outcome: inactive
cl (clot) | outcome: inactive
lbk (lambik) | outcome: inactive
Lsp1gamma (Larval serum protein 1 gamma) | outcome: inactive
Hou (Houki) #1 | outcome: inactive
Hou (Houki) #2 | outcome: inactive
Cyp6a18 (Cytochrome P450 6a18) | outcome: inactive
Spn42Dc (Serpin 42Dc) | outcome: inactive
CG32087 | outcome: inactive
CG14384 | outcome: inactive
EndoB (Endophilin B) | outcome: inactive
Myt1 | outcome: inactive
dUTPase (Deoxyuridine triphosphatase) | outcome: inactive
mRpL42 (mitochondrial ribosomal protein L42) | outcome: inactive
goe (gone early) | outcome: inactive
CG9356 | outcome: inactive
CG31835 + CG42585 | outcome: inactive
CG5863 | outcome: inactive
Gdh (Glutamate dehydrogenase) | outcome: inactive
Naam (Nicotinamide amidase) | outcome: inactive
CG7251 | outcome: inactive
CG32855 | outcome: inactive
Irp-1B (Iron regulatory protein 1B) | outcome: inactive
CG4294 | outcome: inactive
NdufV3 (NADH:ubiquinone oxidoreductase subunit V3) | outcome: inactive
CG34265 | outcome: inactive
Adat1 (Adenosine deaminase, tRNA-specific 1) | outcome: inactive
Cyp1 (Cyclophilin 1) | outcome: inactive
vap (vacuolar peduncle) | outcome: inactive
pain (painless) | outcome: inactive
CG33464 (retired record) | outcome: inactive
Mctp (Multiple C2 domain and transmembrane region protein) #1 | outcome: inactive
Mctp (Multiple C2 domain and transmembrane region protein) #2 | outcome: inactive
VhaAC39-1 (Vacuolar H[+] ATPase AC39 subunit 1) | outcome: inactive
CG10140 | outcome: inactive
Tim9a | outcome: inactive
CG40341 (retired record) #1 | outcome: inactive
CG40341 (retired record) #2 | outcome: inactive
CG30109 + CG30108 | outcome: inactive
CG45105 #1 | outcome: inactive
CG45105 #2 | outcome: inactive
CG11095 | outcome: inactive
MICAL-like | outcome: inactive
CTCF | outcome: inactive
CG10936 #1 | outcome: inactive
CG10936 #2 | outcome: inactive
CG10936 #3 | outcome: inactive
CG11722 | outcome: active
Brd7-9 (Bromodomain containing 7/9) | outcome: inactive
tn (thin) #1 | outcome: inactive
tn (thin) #2 | outcome: active
